According to the supplement of paper PMC10849652:
The other results are listed elsewhere or left out.

The chains behind the UniProt entries cited, without tags or fusion partners. Where a name states a change or a piece, a line headed by the entry shows the natural chain unless it says otherwise.
UniProt Q53S08: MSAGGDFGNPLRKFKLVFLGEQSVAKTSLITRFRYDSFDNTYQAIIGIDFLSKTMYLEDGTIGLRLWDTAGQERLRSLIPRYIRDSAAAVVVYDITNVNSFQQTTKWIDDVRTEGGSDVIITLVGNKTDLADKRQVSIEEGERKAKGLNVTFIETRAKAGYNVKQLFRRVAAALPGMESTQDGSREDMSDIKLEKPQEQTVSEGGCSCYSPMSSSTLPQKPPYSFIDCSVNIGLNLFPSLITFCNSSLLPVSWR
UniProt P51149, whole entry, looked up: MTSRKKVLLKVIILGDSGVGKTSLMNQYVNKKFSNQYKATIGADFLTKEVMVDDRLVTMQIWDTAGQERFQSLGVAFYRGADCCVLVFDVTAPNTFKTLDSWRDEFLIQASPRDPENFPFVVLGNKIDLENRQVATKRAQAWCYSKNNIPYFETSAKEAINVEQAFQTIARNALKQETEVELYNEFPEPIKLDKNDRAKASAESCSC
UniProt P52306: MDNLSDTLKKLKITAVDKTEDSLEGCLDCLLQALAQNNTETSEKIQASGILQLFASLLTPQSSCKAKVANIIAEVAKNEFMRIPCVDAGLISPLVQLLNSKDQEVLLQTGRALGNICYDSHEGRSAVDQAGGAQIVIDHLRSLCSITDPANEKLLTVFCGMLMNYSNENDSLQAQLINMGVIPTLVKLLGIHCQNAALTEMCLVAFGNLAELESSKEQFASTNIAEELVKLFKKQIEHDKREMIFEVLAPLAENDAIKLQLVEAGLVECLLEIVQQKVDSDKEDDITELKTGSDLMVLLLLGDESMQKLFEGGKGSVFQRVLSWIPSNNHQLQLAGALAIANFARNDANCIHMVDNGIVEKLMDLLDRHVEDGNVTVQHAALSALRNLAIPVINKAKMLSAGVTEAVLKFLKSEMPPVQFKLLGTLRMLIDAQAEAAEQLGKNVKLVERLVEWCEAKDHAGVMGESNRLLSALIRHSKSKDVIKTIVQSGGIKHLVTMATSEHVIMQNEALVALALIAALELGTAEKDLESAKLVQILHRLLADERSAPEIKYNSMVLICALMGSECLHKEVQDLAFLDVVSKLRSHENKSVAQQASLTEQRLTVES
UniProt Q9ULC3: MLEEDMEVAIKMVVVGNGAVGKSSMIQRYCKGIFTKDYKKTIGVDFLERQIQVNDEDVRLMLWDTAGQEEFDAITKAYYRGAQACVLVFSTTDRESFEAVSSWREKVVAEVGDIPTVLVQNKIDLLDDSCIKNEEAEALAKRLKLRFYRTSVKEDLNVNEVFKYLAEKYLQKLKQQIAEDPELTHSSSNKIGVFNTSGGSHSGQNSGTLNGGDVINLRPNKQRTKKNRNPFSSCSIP
UniProt Q969Q5: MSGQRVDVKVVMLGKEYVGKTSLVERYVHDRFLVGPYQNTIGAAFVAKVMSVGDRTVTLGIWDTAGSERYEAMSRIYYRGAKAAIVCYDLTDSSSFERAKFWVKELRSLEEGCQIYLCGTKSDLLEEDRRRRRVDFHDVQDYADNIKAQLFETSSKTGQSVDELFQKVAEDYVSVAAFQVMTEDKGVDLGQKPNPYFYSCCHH
UniProt Q9BRP8: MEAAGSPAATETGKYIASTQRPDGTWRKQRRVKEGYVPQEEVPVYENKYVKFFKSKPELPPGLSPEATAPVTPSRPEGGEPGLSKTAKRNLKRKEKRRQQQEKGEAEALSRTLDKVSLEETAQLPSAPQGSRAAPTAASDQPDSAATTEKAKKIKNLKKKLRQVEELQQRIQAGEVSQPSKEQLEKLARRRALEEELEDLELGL
UniProt Q9UL26: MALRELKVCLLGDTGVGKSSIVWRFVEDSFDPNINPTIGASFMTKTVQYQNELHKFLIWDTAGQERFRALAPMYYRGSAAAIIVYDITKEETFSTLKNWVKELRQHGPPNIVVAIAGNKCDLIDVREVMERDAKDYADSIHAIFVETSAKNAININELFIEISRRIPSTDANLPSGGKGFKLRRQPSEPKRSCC
UniProt Q9H2T7: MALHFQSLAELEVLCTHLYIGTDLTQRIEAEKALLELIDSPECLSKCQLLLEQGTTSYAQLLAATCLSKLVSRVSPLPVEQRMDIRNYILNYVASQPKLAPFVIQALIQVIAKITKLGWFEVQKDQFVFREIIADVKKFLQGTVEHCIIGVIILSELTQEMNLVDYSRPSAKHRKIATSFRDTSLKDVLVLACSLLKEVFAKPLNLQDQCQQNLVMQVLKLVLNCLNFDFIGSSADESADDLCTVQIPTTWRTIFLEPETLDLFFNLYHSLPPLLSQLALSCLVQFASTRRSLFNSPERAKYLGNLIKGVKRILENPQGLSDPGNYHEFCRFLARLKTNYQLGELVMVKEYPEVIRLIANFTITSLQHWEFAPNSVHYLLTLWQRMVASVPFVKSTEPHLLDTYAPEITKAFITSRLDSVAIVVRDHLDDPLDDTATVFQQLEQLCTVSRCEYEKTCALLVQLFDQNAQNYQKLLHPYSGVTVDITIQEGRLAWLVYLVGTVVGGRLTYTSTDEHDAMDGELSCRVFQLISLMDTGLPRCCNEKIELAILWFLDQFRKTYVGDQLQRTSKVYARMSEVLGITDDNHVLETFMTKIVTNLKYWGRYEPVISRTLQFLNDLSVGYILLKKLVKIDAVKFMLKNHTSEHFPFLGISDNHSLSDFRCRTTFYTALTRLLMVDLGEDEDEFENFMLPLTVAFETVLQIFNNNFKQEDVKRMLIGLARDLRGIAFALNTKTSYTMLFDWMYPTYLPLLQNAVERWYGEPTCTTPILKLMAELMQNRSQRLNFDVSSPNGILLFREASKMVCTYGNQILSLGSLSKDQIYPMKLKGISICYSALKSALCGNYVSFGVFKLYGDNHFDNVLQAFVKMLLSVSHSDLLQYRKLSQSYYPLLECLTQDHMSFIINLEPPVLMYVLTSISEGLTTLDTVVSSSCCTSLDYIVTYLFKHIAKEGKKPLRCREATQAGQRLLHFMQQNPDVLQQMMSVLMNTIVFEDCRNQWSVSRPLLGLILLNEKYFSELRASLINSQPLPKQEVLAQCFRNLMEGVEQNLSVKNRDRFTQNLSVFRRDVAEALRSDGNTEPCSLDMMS
UniProt P61006: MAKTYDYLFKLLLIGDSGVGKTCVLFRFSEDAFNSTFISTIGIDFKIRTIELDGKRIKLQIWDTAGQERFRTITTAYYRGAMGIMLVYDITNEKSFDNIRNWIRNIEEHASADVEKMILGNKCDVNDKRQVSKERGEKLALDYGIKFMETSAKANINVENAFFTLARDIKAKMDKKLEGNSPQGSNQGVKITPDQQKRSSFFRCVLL
UniProt Q6IQ22: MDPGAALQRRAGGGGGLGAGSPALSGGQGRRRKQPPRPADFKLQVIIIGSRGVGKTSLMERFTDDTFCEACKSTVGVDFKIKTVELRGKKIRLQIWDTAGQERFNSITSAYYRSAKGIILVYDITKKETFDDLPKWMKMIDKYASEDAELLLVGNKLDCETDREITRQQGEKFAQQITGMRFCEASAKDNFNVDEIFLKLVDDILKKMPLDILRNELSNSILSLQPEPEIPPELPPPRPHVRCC
UniProt Q96C36: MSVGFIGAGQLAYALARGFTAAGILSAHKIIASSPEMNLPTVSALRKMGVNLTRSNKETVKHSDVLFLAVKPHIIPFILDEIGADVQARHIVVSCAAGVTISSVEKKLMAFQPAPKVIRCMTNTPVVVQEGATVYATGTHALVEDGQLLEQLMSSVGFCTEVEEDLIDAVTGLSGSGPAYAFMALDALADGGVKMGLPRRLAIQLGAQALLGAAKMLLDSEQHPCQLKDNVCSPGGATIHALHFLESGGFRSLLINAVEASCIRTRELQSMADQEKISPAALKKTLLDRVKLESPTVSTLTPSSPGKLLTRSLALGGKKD
UniProt Q9Y4B4: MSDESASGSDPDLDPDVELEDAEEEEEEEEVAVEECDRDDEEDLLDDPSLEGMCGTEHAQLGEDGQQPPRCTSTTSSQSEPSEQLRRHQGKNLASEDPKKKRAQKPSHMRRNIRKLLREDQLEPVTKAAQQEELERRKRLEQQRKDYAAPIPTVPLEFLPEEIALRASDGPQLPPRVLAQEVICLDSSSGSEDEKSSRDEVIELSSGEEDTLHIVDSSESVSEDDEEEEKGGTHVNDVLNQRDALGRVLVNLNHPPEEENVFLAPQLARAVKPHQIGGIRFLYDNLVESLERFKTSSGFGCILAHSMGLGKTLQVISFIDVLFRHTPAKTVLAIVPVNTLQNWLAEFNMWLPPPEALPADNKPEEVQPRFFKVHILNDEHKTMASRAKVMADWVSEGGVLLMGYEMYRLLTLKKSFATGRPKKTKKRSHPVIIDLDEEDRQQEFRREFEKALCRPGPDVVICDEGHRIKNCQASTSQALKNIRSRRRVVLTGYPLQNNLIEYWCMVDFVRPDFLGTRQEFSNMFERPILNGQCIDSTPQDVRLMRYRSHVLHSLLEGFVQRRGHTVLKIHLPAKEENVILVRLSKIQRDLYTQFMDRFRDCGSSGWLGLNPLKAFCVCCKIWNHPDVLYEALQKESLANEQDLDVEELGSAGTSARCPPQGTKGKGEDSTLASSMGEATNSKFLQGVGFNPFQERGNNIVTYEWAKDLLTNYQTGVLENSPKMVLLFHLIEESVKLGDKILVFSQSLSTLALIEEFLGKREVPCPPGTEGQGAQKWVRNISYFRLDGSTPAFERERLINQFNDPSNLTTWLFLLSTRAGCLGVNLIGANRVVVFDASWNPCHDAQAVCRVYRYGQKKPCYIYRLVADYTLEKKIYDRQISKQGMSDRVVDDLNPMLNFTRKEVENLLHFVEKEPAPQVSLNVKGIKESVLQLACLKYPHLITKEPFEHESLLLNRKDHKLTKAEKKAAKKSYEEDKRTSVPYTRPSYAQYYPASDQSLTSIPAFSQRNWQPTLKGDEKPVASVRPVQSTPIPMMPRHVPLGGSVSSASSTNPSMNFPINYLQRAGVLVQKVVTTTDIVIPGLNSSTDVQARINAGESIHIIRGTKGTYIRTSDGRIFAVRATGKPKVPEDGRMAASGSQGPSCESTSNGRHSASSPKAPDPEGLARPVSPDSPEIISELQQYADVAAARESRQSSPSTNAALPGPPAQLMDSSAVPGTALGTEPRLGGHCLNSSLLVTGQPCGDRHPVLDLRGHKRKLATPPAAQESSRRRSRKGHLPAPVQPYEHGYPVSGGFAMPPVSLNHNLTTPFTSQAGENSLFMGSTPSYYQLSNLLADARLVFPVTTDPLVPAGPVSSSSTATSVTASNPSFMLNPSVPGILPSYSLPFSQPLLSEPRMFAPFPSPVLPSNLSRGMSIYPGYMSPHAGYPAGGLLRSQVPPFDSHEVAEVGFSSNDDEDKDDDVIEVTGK
UniProt Q9NS91, whole entry, looked up: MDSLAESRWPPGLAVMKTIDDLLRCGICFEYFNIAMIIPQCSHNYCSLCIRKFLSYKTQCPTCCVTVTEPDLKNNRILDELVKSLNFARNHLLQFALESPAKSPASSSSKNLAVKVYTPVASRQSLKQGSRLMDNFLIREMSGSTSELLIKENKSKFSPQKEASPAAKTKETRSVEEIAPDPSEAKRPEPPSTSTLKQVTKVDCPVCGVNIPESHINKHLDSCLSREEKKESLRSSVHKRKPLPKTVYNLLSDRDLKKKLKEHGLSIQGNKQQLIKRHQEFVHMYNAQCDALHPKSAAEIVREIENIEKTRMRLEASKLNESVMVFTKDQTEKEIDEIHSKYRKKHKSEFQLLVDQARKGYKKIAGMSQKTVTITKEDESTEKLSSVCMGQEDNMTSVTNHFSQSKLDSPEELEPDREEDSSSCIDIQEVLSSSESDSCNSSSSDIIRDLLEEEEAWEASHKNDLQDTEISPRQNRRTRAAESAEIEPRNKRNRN
UniProt Q9UJ41, whole entry, looked up: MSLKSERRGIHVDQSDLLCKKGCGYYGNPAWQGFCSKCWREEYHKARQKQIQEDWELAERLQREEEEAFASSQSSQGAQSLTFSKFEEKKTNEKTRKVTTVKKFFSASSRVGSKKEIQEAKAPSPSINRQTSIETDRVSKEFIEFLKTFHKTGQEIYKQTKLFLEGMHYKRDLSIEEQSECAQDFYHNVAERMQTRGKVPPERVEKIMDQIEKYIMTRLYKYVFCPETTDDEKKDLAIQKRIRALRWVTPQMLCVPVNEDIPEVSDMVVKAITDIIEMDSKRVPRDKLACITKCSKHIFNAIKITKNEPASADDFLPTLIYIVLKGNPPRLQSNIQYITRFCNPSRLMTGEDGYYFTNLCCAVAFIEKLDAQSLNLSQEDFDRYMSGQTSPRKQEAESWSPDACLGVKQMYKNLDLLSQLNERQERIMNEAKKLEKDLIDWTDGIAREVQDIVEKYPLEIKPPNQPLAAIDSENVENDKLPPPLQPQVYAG
UniProt Q9UKM9: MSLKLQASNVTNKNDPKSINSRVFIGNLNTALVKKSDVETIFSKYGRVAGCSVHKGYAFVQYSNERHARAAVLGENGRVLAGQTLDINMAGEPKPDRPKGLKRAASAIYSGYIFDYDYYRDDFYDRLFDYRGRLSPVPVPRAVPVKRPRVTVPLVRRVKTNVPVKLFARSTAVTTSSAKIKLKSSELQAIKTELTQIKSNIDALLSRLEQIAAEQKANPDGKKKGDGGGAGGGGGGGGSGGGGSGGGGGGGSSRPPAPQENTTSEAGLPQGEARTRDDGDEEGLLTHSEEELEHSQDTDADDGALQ

How the values were obtained:
Test in all cases: log2 fold change, soluble protein after heating vs DMSO (PISA); higher = thermal stabilisation; K562 lysate, 10 uM; active = over 0.2 and 3.5 SD of the protein, either way, in both replicates (recomputed)
[1] = compound: C1=CC=C(C=C1)[C@H](COC2=CC3=C(C=C2)NC(=O)N3)NC(=O)C4=CC=CN(C4=O)CC5=CC(=C(C=C5)F)F
How it was run: (§1)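 Soluble protein was defined as the supernatant remaining after 21,000xg for 90 min, following pooling of heated aliquots and adjustment to 0.5% NP-40 at 4°C. Before that, crude K562 extract at 1 mg/mL protein in PBS pH 7.4 with 1 mM MgCl2 was treated with 10 μM compound for 30 min and heated for 3 min across 48°C-58°C. Quantification used TMTpro 16plex LC-MS/MS with channel sums equalised, and values are log-two fold changes in thermal stability relative to solvent controls from duplicates.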

[2] = compound: CC1=C(SC2=C1C(=N[C@H](C3=NN=C(N32)C)CC(=O)N)C4=CC=C(C=C4)Cl)C
How it was run: as §1

[3] = compound: CC1=C2C(=CC=C1)N=C(N(C2=O)C3=CC=CC=C3C)CN4C=NC5=C(N=CN=C54)N
How it was run: as §1

[4] = compound: Cc1sc2c(c1C)C(c1ccc(Cl)cc1)=N[C@@H](CC(=O)OC(C)(C)C)c1nnc(C)n1-2
How it was run: as §1

[5] = compound: c1ccc([C@@H]2C[C@H]2NC2CCNCC2)cc1
How it was run: as §1

Measured: log2 fold change

RABGGTA (UniProt Q92696)
inactive: [1] 0.007 | [2] 0.011 | [3] 0.02 | [4] -0.018 | [5] -0.002

RAC1 isoform 2 (UniProt P63000)
inactive: [1] 0.078 | [2] -0.05 | [3] -0.037 | [4] 0.082 | [5] 0.15

RAB6D (UniProt Q53S08)
inactive: [1] -0.045 | [2] 0.01 | [3] 0.034 | [4] -0.003 | [5] -0.045

RAD9A (UniProt Q99638)
inactive: [1] 0.014 | [2] 0.002 | [3] -0.007 | [4] -0.027 | [5] 0.043

RAB13 (UniProt P51153)
inactive: [1] 0.002 | [2] -0.064 | [3] 0.034 | [4] 0.064 | [5] 0.06

RAB33B (UniProt Q9H082)
inactive: [1] 0.086 | [2] -0.079 | [3] 0.012 | [4] -0.056 | [5] 0.101

QRSL1 (UniProt Q9H0R6)
inactive: [1] -0.005 | [2] -0.056 | [3] -0.101 | [4] 0.041 | [5] 0.094

PXMP4 (UniProt Q9Y6I8)
inactive: [1] -0.096 | [2] -0.022 | [3] -0.026 | [4] -0.191 | [5] 0.041

QDPR (UniProt P09417)
inactive: [1] 0.005 | [2] 0.012 | [3] 0.001 | [4] 0.013 | [5] -0.008

RAB7A (UniProt P51149)
inactive: [1] 0.003 | [2] -0.016 | [3] 0.03 | [4] -0.001 | [5] -0.01

RAP1GDS1 isoform 5 (UniProt P52306)
inactive: [1] -0.008 | [2] 0.021 | [3] -0.011 | [4] -0.006 | [5] -0.006

RAB11FIP1 (UniProt Q6WKZ4)
inactive: [1] 0.051 | [2] 0.023 | [3] 0.049 | [4] -0.011 | [5] 0.017

RAB5C isoform 2 (UniProt P51148)
inactive: [1] -0.005 | [2] 0.046 | [3] 0.033 | [4] -0.021 | [5] 0.001

PYGB (UniProt P11216)
inactive: [1] -0.013 | [2] -0.013 | [3] 0.002 | [4] -0.029 | [5] 0.037

RAB1A (UniProt P62820)
inactive: [1] -0.04 | [2] -0.019 | [3] 0.035 | [4] 0.032 | [5] 0.005

RAI14 isoform 2 (UniProt Q9P0K7)
inactive: [1] 0.002 | [2] -0.052 | [3] -0.02 | [4] -0.041 | [5] -0.033

RABL3 (UniProt Q5HYI8)
inactive: [1] -0.044 | [2] -0.021 | [3] 0.004 | [4] 0.017 | [5] 0.03

RAD1 (UniProt O60671)
inactive: [1] 0.026 | [2] 0.004 | [3] -0.006 | [4] 0.005 | [5] -0.027

RAD17 (UniProt O75943)
inactive: [1] -0.031 | [2] -0.077 | [3] 0.047 | [4] -0.066 | [5] 0.002

RAE1 (UniProt P78406)
inactive: [1] -0.022 | [2] -0.081 | [3] -0.005 | [4] 0.07 | [5] -0.022

RAB23 (UniProt Q9ULC3)
inactive: [1] 0.074 | [2] -0.032 | [3] 0.037 | [4] 0.042 | [5] -0.061

RAB24 (UniProt Q969Q5)
inactive: [1] 0.01 | [2] 0 | [3] 0.048 | [4] -0.011 | [5] 0.041

QPCTL (UniProt Q9NXS2)
inactive: [1] 0.074 | [2] 0.003 | [3] 0.047 | [4] 0.035 | [5] 0.046

RAP1B (UniProt F5GZG1)
inactive: [1] -0.082 | [2] -0.124 | [3] 0.023 | [4] -0.019 | [5] -0.282

RALBP1 (UniProt Q15311)
inactive: [1] -0.032 | [2] 0.012 | [3] 0.047 | [4] -0.051 | [5] -0.023

PYM1 (UniProt Q9BRP8)
inactive: [1] -0.031 | [2] 0.053 | [3] 0.046 | [4] 0.018 | [5] 0.014

RACK1 (UniProt P63244)
inactive: [1] 0.015 | [2] -0.011 | [3] -0.01 | [4] 0.053 | [5] 0.059

RAB6A isoform 4 (UniProt P20340)
inactive: [1] -0.024 | [2] 0.005 | [3] -0.031 | [4] -0.048 | [5] 0.004

RAD51D (UniProt O75771)
inactive: [1] -0.057 | [2] 0.213 | [3] 0.056 | [4] -0.005 | [5] -0.045

RAB22A (UniProt Q9UL26)
inactive: [1] 0.002 | [2] 0.006 | [3] 0.021 | [4] -0.09 | [5] -0.004

R3HCC1L, A0A384DVK4
inactive: [1] 0.013 | [2] 0.014 | [3] -0.039 | [4] -0.023 | [5] -0.054

RABEPK (UniProt Q7Z6M1)
inactive: [1] -0.032 | [2] 0.054 | [3] 0.026 | [4] 0.017 | [5] -0.071

RAMAC (UniProt Q9BTL3)
inactive: [1] 0.081 | [2] -0.025 | [3] -0.011 | [4] -0.029 | [5] 0.033

RANBP17 (UniProt Q9H2T7)
inactive: [1] -0.191 | [2] -0.261 | [3] 0.063 | [4] -0.18 | [5] -0.112

RAB8A (UniProt P61006)
inactive: [1] -0.024 | [2] -0.005 | [3] 0.003 | [4] 0.026 | [5] 0.016

RAB12 (UniProt Q6IQ22)
inactive: [1] 0.021 | [2] 0.021 | [3] 0.005 | [4] -0.013 | [5] -0.013

RAB3GAP2 (UniProt Q9H2M9)
inactive: [1] 0.015 | [2] -0.002 | [3] 0.032 | [4] 0.041 | [5] 0.026

RABIF (UniProt P47224)
inactive: [1] -0.013 | [2] -0.01 | [3] 0.021 | [4] -0.035 | [5] -0.03

RANBP2 (UniProt P49792)
inactive: [1] -0.019 | [2] -0.009 | [3] 0.002 | [4] 0.003 | [5] 0.02

RANBP9 (UniProt Q96S59)
inactive: [1] 0.021 | [2] 0.013 | [3] 0.027 | [4] -0.024 | [5] -0.021

RALGAPA1 isoform 6 (UniProt Q6GYQ0)
inactive: [1] -0.041 | [2] -0.072 | [3] 0.006 | [4] -0.063 | [5] -0.178

RAB32 (UniProt Q13637)
inactive: [1] -0.039 | [2] 0.049 | [3] -0.003 | [4] -0.077 | [5] -0.021

RANBP6 (UniProt O60518)
inactive: [1] 0.013 | [2] -0.047 | [3] 0.046 | [4] 0.074 | [5] 0.005

PYCR2 (UniProt Q96C36)
inactive: [1] 0.007 | [2] 0.036 | [3] 0.013 | [4] 0.004 | [5] -0.054

RAD54L2 (UniProt Q9Y4B4)
inactive: [1] 0.139 | [2] 0.144 | [3] 0.029 | [4] -0.131 | [5] 0.147

RAPGEF2, A0A2R8YGD3
inactive: [1] -0.043 | [2] 0.021 | [3] -0.046 | [4] -0.003
active: [5] -0.32

RAD18 (UniProt Q9NS91)
inactive: [1] -0.004 | [2] -0.051 | [3] 0.002 | [4] 0.002 | [5] -0.021

RAB21 (UniProt Q9UL25)
inactive: [1] -0.086 | [2] 0.036 | [3] 0.019 | [4] 0.055 | [5] 0.127

RABGEF1 isoform 3 (UniProt Q9UJ41)
inactive: [1] 0.01 | [2] 0 | [3] 0.005 | [4] -0.035 | [5] -0.002

Taken from the entries so far (4 entries):
RAD54L2 (UniProt Q9Y4B4)
inactive: [1] 0.139 | [2] 0.144 | [3] 0.029 | [4] -0.131 | [5] 0.147

RAPGEF2, A0A2R8YGD3
inactive: [1] -0.043 | [2] 0.021 | [3] -0.046 | [4] -0.003
active: [5] -0.32

RAD18 (UniProt Q9NS91)
inactive: [1] -0.004 | [2] -0.051 | [3] 0.002 | [4] 0.002 | [5] -0.021

RAB21 (UniProt Q9UL25)
inactive: [1] -0.086 | [2] 0.036 | [3] 0.019 | [4] 0.055 | [5] 0.127

More records follow.

RABGGTB (UniProt P53611)
inactive: [1] -0.102 | [2] -0.01 | [3] 0.005 | [4] -0.048 | [5] -0.017

RALY (UniProt Q9UKM9)
inactive: [1] 0.046 | [2] 0.013 | [3] 0.025 | [4] 0.03 | [5] 0.026

RABEP2 (UniProt Q9H5N1)
inactive: [1] -0.005 | [2] 0.005 | [3] 0.057 | [4] -0.027 | [5] 0.044

RAP1A (UniProt P62834)
inactive: [1] -0.018 | [2] 0.04 | [3] 0.009 | [4] 0.071 | [5] -0.003
